Results are given in words; binding and its absence hold for the method and conditions named. Some results given as binding are weak or reduced against the parent protein; the word gives no strength.
Columns and labels:
[1] = molecular target: IGF-IIE (amino acids 1-104 of pro-IGF-II) (human) (UniProt P01344); assay: phage selection and sFab ELISA
[2] = molecular target: insulin-like growth factor II (IGF-II), amino acids 1-67 (human) (UniProt P01344); assay: phage selection and sFab ELISA
[3] = molecular target: IGF-IIE (amino acids 1-104 of pro-IGF-II) (human) (UniProt P01344); assay: SPR, IgG captured on anti-human Fc chip, ligand as analyte
[4] = molecular target: insulin-like growth factor II (IGF-II), amino acids 1-67 (human) (UniProt P01344); assay: SPR, Fc-captured antibody
[5] = molecular target: insulin-like growth factor II (IGF-II), amino acids 1-67 (human) (UniProt P01344); assay: SPR (BIAcore)
[6] = molecular target: insulin-like growth factor I (IGF-I) (UniProt P05019); assay: SPR (BIAcore)
[7] = molecular target: insulin-like growth factor II (IGF-II), amino acids 1-67 (human) (UniProt P01344); assay: SPR: DX-2647 captured through its Fc, free IGF-II injected; concentration not on the sheet

Chains of the proteins cited; added tags and fusions are not shown. Lines headed by an entry give the natural chain unless they say otherwise; changes in a name come on top. Residues count along the entry.
UniProt P01344: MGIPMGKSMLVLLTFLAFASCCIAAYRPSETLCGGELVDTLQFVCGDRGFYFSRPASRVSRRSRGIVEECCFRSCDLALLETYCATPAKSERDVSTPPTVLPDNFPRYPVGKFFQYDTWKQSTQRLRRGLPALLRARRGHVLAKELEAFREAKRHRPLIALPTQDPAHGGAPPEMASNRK
UniProt P05019, residues 49-118: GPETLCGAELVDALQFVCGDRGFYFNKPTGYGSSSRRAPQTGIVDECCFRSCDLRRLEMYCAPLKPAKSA

Measured: binding

B1: M0070-H08 Fab (Fab, V domains shown)
VH: EVQLLESGGGLVQPGGSLRLSCAASGFTFSRYWMIWVRQAPGKGLEWVSSIRSSGETKYADSVKGRFTISRDNSKNTLYLQMNSLRAEDTAVYYCARGPLSDYYDSSGYYFDAFDIWGQGTMVTVSS
VL: DIQMTQSPSSLSASAGDRVTITCRASQSISSYLNWYQQKPGKAPNLLIYTTSNLQGGVPSRFSGSGSGTDFTLTISSLQPEDFATYYCQQGYSFPLTFGGGTKVEIKR
binds: [1] | [2]

B2: DX-2647 (antibody, human IgG1, kappa, V domains shown)
VH: EVQLLESGGGLVQPGGSLRLSCAASGFTFSNYIMWWVRQAPGKGLEWVSVISSSGGGTLYADSVKGRFTISRDNSKNTLYLQMNSLRAEDTAVYYCARDNGDYVGEKGFDIWGQGTMVTVSS
VL: DIQMTQSPSSLSASVGDRVTITCRASQSISNYLNWYQQKPGKAPKLLIYTASTLQSGVPSRFSGSGSGTDFTLTISSLQPEDFATYYCQQSYNSPWTFGQGTKVEIKR
not listed: [1] | [2]
binds: all other assays above
